The source of these data is patent US20230381327A1 (DEBIOPHARM RESEARCH & MANUFACTURING S.A., priority 2020, published 2023).

This data set can be described thus: general procedure: Fmoc solid-phase peptide synthesis; Rink Amide AM resin (loading: 0.57 mmol/g); DIC. The following applies: for purity (crude or final not stated): whole synthesis; for purity (crude or final not stated) / final HPLC purity / crude HPLC purity: UPLC-MS, elution monitored at 214 nm (214 and 280 nm for method 2).
The mark [1] stands for this setting: one disulfide bridge, sequence written open.
Where [2] appears, read: conjugation step, one disulfide bridge.
Setting [3] is: late stage modification step, one disulfide bridge.

Non-standard residues stand in square brackets, D forms with d. Orn = NCCC[C@H](N)C(=O)O; Dab = NCC[C@H](N)C(=O)O; Dap = NC[C@H](N)C(=O)O

As for A3Dap-PEG1, the “purity (crude or final not stated)” value (one disulfide bridge) is listed as 90%.

Turning to Ac-DCAKHLGELVWCT-NH2, the “purity (crude or final not stated)” value under setting [1] is 99%.

As to Ac-DCAWDabLGELVWCT-NH2, the “purity (crude or final not stated)” value amounted to 100%.

As for Ac-DCAWH(D-Dap)GELVWCT-NH2, the “purity (crude or final not stated)” value under setting [1] is given as 95%.

As to Ac-DCAWHDabGELVWCT-NH2, under setting [1], the “purity (crude or final not stated)” value is recorded as 90%.

In the case of Ac-DCAWHDapGELVWCT-NH2, the “purity (crude or final not stated)” value under setting [1] is listed as 100%.

For Ac-DCAWHKGELVWCT-NH2, under setting [1], the “purity (crude or final not stated)” value is given as 100%.

In the case of Ac-DCAWHLGDapLVWCT-NH2, the “purity (crude or final not stated)” value under setting [1] is 98%.

Regarding Ac-DCAWHLGEKVWCT-NH2, under setting [1], the “purity (crude or final not stated)” value came out at 99%.

Regarding Ac-DCAWHLGELKWCT-NH2, under setting [1], the “purity (crude or final not stated)” value is on record as 100%.

For Ac-DCAWHLGELVKCT-NH2, the “purity (crude or final not stated)” value under setting [1] is given as 98%.

With Ac-DCAWHLGELVWCK-NH2, the “purity (crude or final not stated)” value under setting [1] worked out at 99%.

For the substance Ac-DCAWHLGKLVWCT-NH2, under setting [1], the “purity (crude or final not stated)” value was 99%.

For the substance Ac-DCAWHLKELVWCT-NH2, under setting [1], the “purity (crude or final not stated)” value turned out to be 86%.

For the substance Ac-DCAWHOrnGELVWCT-NH2, the “purity (crude or final not stated)” value under setting [1] was 100%.

For “Ac-DCAWH[Dap]GQLVWCT-NH2 (cysteine pairing not given here)”, the “purity (crude or final not stated)” value came to 100%.

As for “Ac-DCAWH[Orn]GQLVWCT-NH2 (cysteine pairing not given here)”, the “purity (crude or final not stated)” value is 54%.

For Ac-DCAWKLGELVWCT-NH2, under setting [1], the “purity (crude or final not stated)” value stood at 98%.

On to Ac-DCAWKLGQLVWCT-NH2, for which, under setting [1], the “purity (crude or final not stated)” value is 99%.

With “Ac-DCAW[Dab]LGQLVWCT-NH2 (cysteine pairing not given here)”, the “purity (crude or final not stated)” value came to 99%.

For the substance “Ac-DCAW[Dap]LGQLVWCT-NH2 (cysteine pairing not given here)”, the “purity (crude or final not stated)” value is given as 99%.

Turning to “Ac-DCAW[Orn]LGQLVWCT-NH2 (cysteine pairing not given here)”, the “purity (crude or final not stated)” value was determined as 98%.

With Ac-DCDapWHLGELVWCT-NH2, the “purity (crude or final not stated)” value came out at 98%.

As for Ac-DCKWHLGELVWCT-NH2, the “purity (crude or final not stated)” value under setting [1] is listed as 99%.

As to Ac-DCOrnWHLGELVWCT-NH2, the “purity (crude or final not stated)” value amounted to 98%.

With “Ac-DC[Dap]WH[Orn]GELVWCT-NH2 (cysteine pairing not given here)”, the “purity (crude or final not stated)” value turned out to be 92%.

Take Ac-DChKWHLGELVWCT-NH2: the “purity (crude or final not stated)” value worked out at 94%.

For the substance Ac-KCAWHLGELVWCT-NH2, the “purity (crude or final not stated)” value under setting [1] is 98%.

Consider Ac-PEG20-DCAWHOrnGELVWCT-NH2, for which the “purity (crude or final not stated)” value under setting [1] is given as 88%.

As to Ac-RGNCAYHKGQIIWCTYH-NH2, the “purity (crude or final not stated)” value under setting [1] is 99%.

On to “Ac-RGNCAYH[Orn]GQIIWCTYH-NH2 (cysteine pairing not given here)”, for which the “purity (crude or final not stated)” value worked out at 98%.

BocHN-Fc-III—(OtBu)2-L6Orn-PEG11-N3: for the setting “conjugation step”, the conjugation yield is 40% yield and the “final HPLC purity” value was “UV purity 95%”.

Turning to H-DCAWHLGELVWCT-NH2, under setting [1], the “purity (crude or final not stated)” value is greater than 95%.

Turning to L6Dap-(CH2)2-ester-DOTA, under setting [2], the “final HPLC purity” value was “UV purity 100%” and the conjugation yield is given as 57% yield.

For L6Dap-(CH2)2-ester-DTPA, under setting [2], the “final HPLC purity” value is “UV purity 84%” and the conjugation yield is 59% yield.

Consider L6Dap-(CH2)2-ester-NH2, for which, for the setting “late stage modification step”, the step yield came to 99% yield and the “crude HPLC purity” value is “UV purity 79%”.

In the case of L6Dap-(CH2)2-ester-NHBoc, where the note is “late stage modification step”, the step yield worked out at 53% yield and the “final HPLC purity” value was “UV purity 86%”.

On to L6Orn(-carbonate-NH2)-PEG24, for which the “crude HPLC purity” value (late stage modification step) is recorded as 100% UV purity.

For L6Orn(-carbonate-NHBoc)-PEG24, where the note is “late stage modification step”, the step yield turned out to be 77% yield and the “final HPLC purity” value is given as 100% UV purity.

For L6Orn(-carbonate-PDB-DM4)-PEG24, under setting [2], the “final HPLC purity” value was 100% UV purity and the conjugation yield worked out at 64% yield.

Turning to L6Orn(-carbonate-S-Mmt)-PEG24, for the setting “late stage modification step”, the step yield is reported as 82% yield and the “final HPLC purity” value is 100% UV purity.

For the substance L6Orn(-carbonate-Vedotin)-PEG24, under setting [2], the “final HPLC purity” value was 100% UV purity and the conjugation yield was 77% yield.

With L6Orn-PEG11-N3, under setting [3], the “crude HPLC purity” value is “UV purity 75%” and the step yield is listed as 51% yield.

For RGNCAYHK(SuOH)GQIIWCTYH, under “late stage modification step”, the step yield is listed as 43% yield and the “final HPLC purity” value amounted to 99% UV purity.

RGNCAYHOrn(SuOH)GQIIWCTYH: for the setting “late stage modification step”, the step yield was 36% yield and the “final HPLC purity” value was determined as 99% UV purity.

As to mPEG24-DCAWHOrnGELVWCT-NH2, under setting [1], the “purity (crude or final not stated)” value is listed as 98%.
